From the supplement of paper PMC12009310 come the findings set out here.

SMILES strings stand for the structures. Where a name gives a salt, the structure may show the parent alone. ± gives the standard deviation of the averaged measurements. The list shows a part of the results. Baselines shift from plate to plate; read single values as rough.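 The cells are a mouse kidney inner medullary collecting duct line, silenced either for the ciliary gene Rpgrip1l or with a non-targeting control siRNA.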

Test [1] concerns mIMCD3. In words: robust z score of cell number vs plate controls; higher = more cells (less cytotoxic). Particulars: 10 µM, 48 h.
The subject of test [2] is mIMCD3. In words: robust z score of cilia incidence (% cells with single cilium) vs plate controls; higher = more ciliated cells. Particulars: 10 µM; 48 h; siRNA: siScr.
Test [3] concerns mIMCD3. In words: robust z score of cilia incidence (% cells with single cilium) vs plate controls; higher = more ciliated cells (rescue of cilia loss). Conditions: 10 µM; 48 h; siRNA: siRpgrip1l.

Regarding `Nc1nc2c(ccc3ccccc32)s1`, the “robust z score of cell number” value was -28 ± 34 in the test on mIMCD3 [1] (siRNA: siRpgrip1l) and -0.881 ± 2.6 in the test on mIMCD3 [1] (siRNA: siScr). The “robust z score of cilia incidence” value in the test with mIMCD3 [2] is 0.26 ± 0.86; in the test with mIMCD3 [3] it was -4.23 ± 0.43.
On the same counts, the results for `N#C/C(=C\c1ccc(O)c(O)c1)C(=O)NCCCCc1ccccc1` are -57.4 ± 57, -28 ± 22, -18.9 ± 14 and -26.8 ± 20.
Consider `CN(C)[C@@H]1CCc2[nH]c3ccc(NC(=O)c4ccc(F)cc4)cc3c2C1`, for which the “robust z score of cell number” value in the test on mIMCD3 [1] (siRNA: siRpgrip1l) was -28.6 ± 14; in the test with mIMCD3 [1] (siRNA: siScr), -27.5 ± 4.7. Also, the figures for the “robust z score of cilia incidence” value with mIMCD3 [2] and with mIMCD3 [3] were -52.1 ± 41 and -32.4 ± 15, respectively.
The like results for `Cc1cc(F)c(Nc2ncnc3cc(OCc4ccccc4)ccc23)cc1O` were, in that order, -32.8 ± 11, -144 ± 110, -64.7 ± 10 and -56.3 ± 9.5.
On the same counts, the results for `COC(=O)Nc1nc2cc(C(=O)c3cccs3)ccc2[nH]1` [Nocodazole] are -275 ± 190, -37.3 ± 8.9, -35.2 ± 10 and -29.4 ± 11.
Take `C=CCNC(=O)c1cc([N+](=O)[O-])cc2c(=O)[nH]c(Nc3ccc(Cl)c(Cl)c3)nc12`: the “robust z score of cell number” value is -0.135 ± 2.1 in the test on mIMCD3 [1] (siRNA: siRpgrip1l) and -2.29 ± 1.6 in the test on mIMCD3 [1] (siRNA: siScr). Moreover, the entries for the “robust z score of cilia incidence” value with mIMCD3 [2] and in the test with mIMCD3 [3] were -0.927 ± 0.31 and -8.73 ± 0.65, respectively.
On the same counts, the results for `O=c1oc(-c2ccc(C(F)(F)F)cc2)nn1Cc1cc(Cl)ccc1O` are -12.5 ± 4.1, -51 ± 39, -5.35 ± 5.1 and -18.2 ± 0.83.
On the same counts, the results for `COc1cccc(-c2cc(=O)c3ccccc3o2)c1N` are -19.9 ± 17, -7.68 ± 0.091, -2.19 ± 0.54 and -19.9 ± 2.4.
On the same counts, the results for `CN(CC[C@@H](Oc1ccc(-c2ccccc2)cc1)c1ccc(F)cc1)CC(=O)O` [ALX 5407 hydrochloride] are -8.06 ± 7.3, -5.55 ± 3.8, -1.1 ± 3.1 and -20.7 ± 8.9.
Turning to `COc1cccc(NC(=O)/C=C/c2ccc(Cl)cc2)c1`, the “robust z score of cell number” value in the test on mIMCD3 [1] (siRNA: siRpgrip1l) was -130 ± 140; in the test with mIMCD3 [1] (siRNA: siScr), -31.2 ± 8.9. Moreover, the “robust z score of cilia incidence” value with mIMCD3 [2] is -23.6 ± 14; with mIMCD3 [3] it was -455 ± 270.
On the same counts, the results for `O=C(CCCN1CCC(O)(c2ccc(Cl)cc2)CC1)c1ccc(F)cc1` [Haloperidol hydrochloride] are -15.1 ± 11, -13.5 ± 1.1, -18 ± 9.8 and -25.6 ± 6.5.
The like results for `NC(=O)N/N=C/c1ccc(Oc2ccc(F)cc2)cc1` were, in that order, -5.35 ± 4.9, -33.5 ± 31, 2.28 ± 5.5 and -7.53 ± 1.9.
